The values below come from doi:10.1101/2021.10.05.463166.

The chains behind the UniProt entries cited, without tags or fusion partners.
UniProt O15392: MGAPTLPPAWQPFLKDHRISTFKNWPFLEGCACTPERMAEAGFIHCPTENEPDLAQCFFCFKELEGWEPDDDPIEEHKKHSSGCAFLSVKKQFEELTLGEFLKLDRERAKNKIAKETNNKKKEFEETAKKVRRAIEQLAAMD
UniProt P84022: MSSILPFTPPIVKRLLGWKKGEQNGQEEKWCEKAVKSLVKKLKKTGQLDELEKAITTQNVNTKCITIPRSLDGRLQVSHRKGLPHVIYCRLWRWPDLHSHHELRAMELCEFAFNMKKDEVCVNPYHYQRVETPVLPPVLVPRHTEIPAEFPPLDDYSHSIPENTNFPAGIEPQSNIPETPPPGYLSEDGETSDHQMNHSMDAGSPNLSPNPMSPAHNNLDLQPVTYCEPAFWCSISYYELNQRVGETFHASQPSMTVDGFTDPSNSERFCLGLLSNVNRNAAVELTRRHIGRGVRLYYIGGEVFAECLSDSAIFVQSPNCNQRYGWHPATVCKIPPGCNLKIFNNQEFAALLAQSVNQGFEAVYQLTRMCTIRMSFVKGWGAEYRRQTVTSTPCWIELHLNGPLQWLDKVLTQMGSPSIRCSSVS
UniProt P05412: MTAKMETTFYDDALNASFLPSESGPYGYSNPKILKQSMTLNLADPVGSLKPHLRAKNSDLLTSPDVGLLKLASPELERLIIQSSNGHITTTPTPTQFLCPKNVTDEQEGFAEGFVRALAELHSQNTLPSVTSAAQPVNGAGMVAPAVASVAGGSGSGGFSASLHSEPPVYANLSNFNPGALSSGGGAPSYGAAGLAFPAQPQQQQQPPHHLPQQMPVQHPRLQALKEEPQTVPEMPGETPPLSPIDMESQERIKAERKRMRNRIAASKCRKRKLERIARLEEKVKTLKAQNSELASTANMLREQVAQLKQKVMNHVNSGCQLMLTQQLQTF

First the molecules themselves.
B1: IRF1 (protein, UniProt P10914 1-325)
chain: MPITRMRMRPWLEMQINSNQIPGLIWINKEEMIFQIPWKHAAKHGWDINKDACLFRSWAIHTGRYKAGEKEPDPKTWKANFRCAMNSLPDIEEVKDQSRNKGSSAVRVYRMLPPLTKNQRKERKSKSSRDAKSKAKRKSCGDSSPDTFSDGLSSSTLPDDHSSYTVPGYMQDLEVEQALTPALSPCAVSSTLPDWHIPVEVVPDSTSDLYNFQVSPMPSTSEATTDEDEEGKLPEDIMKLLEQSEWQPTNVDGKGYLLNEPGVQPTSVYGDFSCKEEPEIDSPGGDIGLSLQRVFTDLKNMDATWLDSLLTPVRLPSIQAIPCAP
B2: JUND (protein, UniProt P17535 1-347)
chain: METPFYGDEALSGLGGGASGSGGSFASPGRLFPGAPPTAAAGSMMKKDALTLSLSEQVAAALKPAAAPPPTPLRADGAPSAAPPDGLLASPDLGLLKLASPELERLIIQSNGLVTTTPTSSQFLYPKVAASEEQEFAEGFVKALEDLHKQNQLGAGAAAAAAAAAAGGPSGTATGSAPPGELAPAAAAPEAPVYANLSSYAGGAGGAGGAATVAFAAEPVPFPPPPPPGALGPPRLAALKDEPQTVPDVPSFGESPPLSPIDMDTQERIKAERKRLRNRIAASKCRKRKLERISRLEEKVKTLKSQNTELASTASLLREQVAQLKQKVLSHVNSGCQLLPQHQVPAY
B3: IRF8 (protein, UniProt Q02556 1-426)
chain: MCDRNGGRRLRQWLIEQIDSSMYPGLIWENEEKSMFRIPWKHAGKQDYNQEVDASIFKAWAVFKGKFKEGDKAEPATWKTRLRCALNKSPDFEEVTDRSQLDISEPYKVYRIVPEEEQKCKLGVATAGCVNEVTEMECGRSEIDELIKEPSVDDYMGMIKRSPSPPEACRSQLLPDWWAQQPSTGVPLVTGYTTYDAHHSAFSQMVISFYYGGKLVGQATTTCPEGCRLSLSQPGLPGTKLYGPEGLELVRFPPADAIPSERQRQVTRKLFGHLERGVLLHSSRQGVFVKRLCQGRVFCSGNAVVCKGRPNKLERDEVVQVFDTSQFFRELQQFYNSQGRLPDGRVVLCFGEEFPDMAPLRSKLILVQIEQLYVRQLAEEAGKSCGAGSVMQAPEEPPPDQVFRMFPDICASHQRSFFRENQQITV

No constants are given. Whether binding was seen depends on the method and setting. In cells and extracts the contact can be indirect. Some results given as binding are weak or reduced against the parent protein; the word gives no strength.

This assay deals with survivin (human (endogenous in THP-1)) (UniProt O15392). The assay can be described thus: co-IP.
As for SMAD3 (from UniProt P84022 1-425), the binding result is “binds”.
To JUN (from UniProt P05412 1-331) belongs “no binding”; to B1, “binds”; to B2, “no binding”.
To B3 belongs “no binding”.
